Assay results: patent US20170266186A1, “USE OF INHIBITORS OF BRUTON'S TYROSINE KINASE (BTK)” (Pharmacyclics LLC, priority 2011, published 2017)
For at least one compound, name, drawing or mass did not settle the structure.

System: cell lines
Test: combination of PCI-32765 with other drugs in cell lines
Type: cell-based

## C[C@@H]1C[C@H]2[C@@H]3CCC4=CC(=O)C=C[C@]4(C)[C@@]3(F)[C@@H](O)C[C@]2(C)[C@@]1(O)C(=O)CO [dexamethasone]
  interaction with PCI-32765 in combination: weak synergy
